Laboratory results reported in publication PMC3390409.
These are yes or no findings as the source states them, for the method shown. In cells and extracts the contact can be indirect.

Sequences of proteins named here, by UniProt entry; tags and fusion partners are left off.
UniProt P30260: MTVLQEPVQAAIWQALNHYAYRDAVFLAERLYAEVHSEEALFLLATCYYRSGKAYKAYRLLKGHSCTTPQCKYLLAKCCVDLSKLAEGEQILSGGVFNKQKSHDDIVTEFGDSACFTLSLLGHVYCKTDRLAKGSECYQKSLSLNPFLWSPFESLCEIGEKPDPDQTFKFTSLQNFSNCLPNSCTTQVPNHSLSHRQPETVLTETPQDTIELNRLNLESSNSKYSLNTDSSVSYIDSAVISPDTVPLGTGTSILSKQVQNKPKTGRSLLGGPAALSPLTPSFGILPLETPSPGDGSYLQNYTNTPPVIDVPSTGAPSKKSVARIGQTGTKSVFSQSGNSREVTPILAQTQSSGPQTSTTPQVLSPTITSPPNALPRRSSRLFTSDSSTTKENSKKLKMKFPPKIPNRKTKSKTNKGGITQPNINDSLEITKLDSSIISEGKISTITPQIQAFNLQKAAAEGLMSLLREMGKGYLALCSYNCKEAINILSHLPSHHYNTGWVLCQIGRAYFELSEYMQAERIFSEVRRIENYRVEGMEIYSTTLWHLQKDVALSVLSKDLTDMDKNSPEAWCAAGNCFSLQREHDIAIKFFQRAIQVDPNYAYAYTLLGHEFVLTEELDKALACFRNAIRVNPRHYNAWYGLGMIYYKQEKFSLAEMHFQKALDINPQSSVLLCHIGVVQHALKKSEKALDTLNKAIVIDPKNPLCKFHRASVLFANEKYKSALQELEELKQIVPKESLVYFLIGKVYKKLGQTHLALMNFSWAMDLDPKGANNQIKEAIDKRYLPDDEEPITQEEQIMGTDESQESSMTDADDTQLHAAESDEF
UniProt P16790: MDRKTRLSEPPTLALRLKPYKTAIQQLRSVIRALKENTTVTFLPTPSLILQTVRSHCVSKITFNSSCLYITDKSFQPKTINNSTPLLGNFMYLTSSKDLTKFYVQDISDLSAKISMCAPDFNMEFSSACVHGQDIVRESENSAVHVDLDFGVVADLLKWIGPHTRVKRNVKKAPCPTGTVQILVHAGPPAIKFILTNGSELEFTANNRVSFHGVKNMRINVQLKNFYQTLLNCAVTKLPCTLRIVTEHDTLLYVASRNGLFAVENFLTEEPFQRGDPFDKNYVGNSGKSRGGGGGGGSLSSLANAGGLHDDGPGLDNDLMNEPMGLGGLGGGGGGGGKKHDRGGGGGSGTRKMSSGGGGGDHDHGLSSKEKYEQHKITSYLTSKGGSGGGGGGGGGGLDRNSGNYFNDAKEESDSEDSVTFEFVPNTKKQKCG

Biological target: APC3 (anaphase-promoting complex subunit 3) (human (endogenous in MRC-5 and 293T)) (UniProt P30260)
Test: co-IP; lysates of MRC-5 infected with viruses carrying native (untagged) UL21a alleles or the UL21a deletion, 20-24 hpi, with or without 10 µM MG132; APC3 antibody on protein A Dynabeads; 0.5% NP-40, 50 mM Tris-Cl pH 8.0, 125 mM NaCl; immunoblot

Substance: pUL44 (viral DNA polymerase accessory factor UL44) (from UniProt P16790 1-433)
- binding: no binding
